# Screen size: about 360,000 compounds; about 610 (0.17%) were called active. Inconclusive means that the source gave no clear call. Such entries were picked first, then a sample of the others. Rule as the data show it: active = inhibition above about 30%; inconclusive = no clear call, values can overlap the other calls; inactive = below that. More than one record can exist for a structure, and the calls need not agree.
# Tested on: Botulinum neurotoxin type A light chain protease (Clostridium botulinum A str. ATCC 3502)
# Assay: blockers of BoNT/A LC substrate cleavage – biochemical, flow cytometry, MLPCN library, primary screen (AID 588499); also: plate controls were buffer without enzyme for full effect and enzyme alone for no effect
# Details: multiplex microsphere protease substrate cleavage, at 10 µM, active compounds read high
row,Structure (SMILES),inhibition
1,CCn1c(=O)c(C(=O)Nc2ccccc2C)c(O)c2ccccc21,inconclusive: 2%
2,Cc1ccc(NS(=O)(=O)c2ccc3c(c2)NC(=O)CCS3)cc1C,inactive: 1.1%
3,O=C(O)c1cccc2c1NC(c1cccc([N+](=O)[O-])c1)C1CC(Sc3ccccc3[N+](=O)[O-])C(Cl)C21 (stereo unspecified),inconclusive: -0.5%
4,CN1c2ccccc2-c2nc3ccccc3n2C1c1ccncc1 (stereo unspecified),inactive: 0.2%
5,CCN1CCCC1CN=Cc1c(O)n(-c2ccccc2)c(=O)c2ccccc12 (stereo unspecified),inconclusive: -6.4%
6,Cc1ncc(CC(=O)n2cc(C(=O)c3cc(F)ccc3O)cn2)s1,inconclusive: -1.2%
7,CCc1nc2ccc(C(=O)N3CCN(S(=O)(=O)CC)CC3)cn2c1N(CC)CCN(C)C,inactive: -0.4%
8,COc1cc(C2N(C)C(=O)c3ccccc3N2C)ccc1O (stereo unspecified),inactive: -6.5%
9,COc1ccc(-n2cc3ccc([N+](=O)[O-])cc3n2)cc1,inactive: 2.7%
10,Cc1cc(C)n(S(=O)(=O)c2ccc(C)c(C)c2)n1,inconclusive: -5.5%
11,CS(=O)(=O)NCCSc1cc(C(F)(F)F)nc2ccccc12,inconclusive: 0.3%
12,COCCCNC(=O)Cn1cc(C(C)=O)c2ccccc21,inactive: -2.9%
13,CCOC(=O)C1CCN(C(=O)CN(C)S(=O)(=O)c2cc(C)ccc2OC)CC1,inconclusive: 4.1%
14,O=C(NCC1CCCO1)c1ccc(CS(=O)(=O)c2ccc(Br)cc2)o1 (stereo unspecified),inactive: -0.1%
15,COc1ccc(Oc2cccc(Cl)c2CNC(=O)CSCC(=O)O)cc1,inconclusive: 22.5%
16,COc1ccc2c(c1OC)C(=O)OC2CC(=O)c1ccc(N(C)C)cc1 (stereo unspecified),inactive: -0.3%
17,COc1ccc(CN2CC(=O)N3[C@H]4c5ccccc5OC[C@@H]4[C@H](c4ccccc4)[C@]3(C)C2=O)cc1,inactive: -0.4%
18,Nc1nc(SCC(=O)c2c(N)n(C3CC3)c(=O)[nH]c2=O)n[nH]1,inconclusive: -3.4%
19,CCOC(=O)C(Oc1ccc2c(-c3ccc(OC)cc3)cc(=O)oc2c1C)c1ccccc1 (stereo unspecified),inconclusive: 0%
20,CCN(CC)CCCN=Cc1c(O)n(CCc2ccc(OC)c(OC)c2)c(=O)[nH]c1=O,inconclusive: 1.3%
21,O=C1/C(=C/c2cccnc2)Oc2cc(OS(=O)(=O)c3ccc(Cl)cc3)ccc21,inactive: 3.5%
22,O=C(/C=C\Nc1cccc(F)c1)c1ccc2c(c1)OCO2,inconclusive: 1.3%
23,CCSc1nc(C(F)(F)F)cc(=O)n1-c1ccccc1,inconclusive: 0.7%

# Pulled by structure from the list above, 5 records:
row,Structure (SMILES),inhibition
20,CCN(CC)CCCN=Cc1c(O)n(CCc2ccc(OC)c(OC)c2)c(=O)[nH]c1=O,inconclusive: 1.3%
6,Cc1ncc(CC(=O)n2cc(C(=O)c3cc(F)ccc3O)cn2)s1,inconclusive: -1.2%
19,CCOC(=O)C(Oc1ccc2c(-c3ccc(OC)cc3)cc(=O)oc2c1C)c1ccccc1 (stereo unspecified),inconclusive: 0%
22,O=C(/C=C\Nc1cccc(F)c1)c1ccc2c(c1)OCO2,inconclusive: 1.3%
23,CCSc1nc(C(F)(F)F)cc(=O)n1-c1ccccc1,inconclusive: 0.7%

# Next part

row,Structure (SMILES),inhibition
1,COc1ccc2c(c1)C(=O)CC(O)(C(F)F)O2 (stereo unspecified),inconclusive: 13.1%
2,Cn1cccc1/C=C1\CC(C(C)(C)C)C/C(=C\c2cccn2C)C1=O (stereo unspecified),inactive: 2.7%
3,O=C(COc1ccc(S(=O)(=O)N2CCOCC2)cc1)NCc1ccccn1,inactive: -0.6%
4,Cc1nnc(SCC(=O)N2CCOCC2)s1,inconclusive: 1.6%
5,N#CC(c1ccc(Cl)cc1)c1ncc(C(F)(F)F)cc1Cl (stereo unspecified),inconclusive: -4.5%
6,CCOc1ccc(C(C)=O)cc1N1C(=O)C2C3C=CC(O3)C2C1=O (stereo unspecified),inconclusive: 1.7%
7,CN(/N=C/c1cccnc1)c1cnn(-c2ccc(F)c(Cl)c2)c(=O)c1Cl,inconclusive: 44.9%
8,CC1(C)Cc2c(C#N)c(N)sc(=S)c2CO1,inactive: 25.5%
9,Cn1c(=O)c(=O)n(C)c2cc(S(=O)(=O)NCCc3ccccc3)ccc21,inconclusive: 1.9%
10,CSc1nc(C)cc(OCC(=O)n2nc(C)cc2C)n1,inconclusive: 0.7%
11,O=c1[nH]c2ccsc2c(=O)n1-c1ccc(F)c(Cl)c1,inconclusive: 14.1%
12,Nc1c(-c2ccccc2)n[nH]c1-c1ccccc1,inconclusive: 0.8%
13,Cc1nc(C)c(-c2ccn(S(=O)(=O)c3ccc(Cl)cc3)n2)o1,inconclusive: 9%
14,CCc1nc(N2CCN(CC(=O)NCC3CCCO3)CC2)c(C#N)c2c1COC(C)(C)C2 (stereo unspecified),inconclusive: -300%
15,CC(=O)N1CCN(Cc2nc3cc(NC(=O)C4CCCCC4)ccc3n2C)CC1,inconclusive: 0.6%
16,CC1CCc2sc3ncnc(N4CCN(C)CC4)c3c2C1 (stereo unspecified),inactive: 2.2%
17,CN(C)c1cc2c(cc1NC(=O)c1ccccc1Cl)n(C)c(=O)n2C,inactive: 1.6%
18,COc1cccc(Nc2nnc(SCC(=O)N3CC(C)OC(C)C3)s2)c1 (stereo unspecified),inconclusive: -2.4%
19,Cc1ccc(Cn2ccc(NC(=O)c3cc(-c4ccccc4)on3)n2)cc1,inconclusive: -3.4%
20,O=C(COc1ccccc1CNCc1ccccc1)Nc1ccccc1,inconclusive: -3%
21,Cc1ccc(C2=NS(=O)(=O)N(C)C(C(=O)Nc3cc(C)n(CC(=O)N4CCC(C)CC4)n3)=C2)cc1,inactive: -0.1%
22,COc1ccc(C(=O)SC2=NCCS2)cc1OC,inconclusive: -5.2%
23,c1ccc(Sc2nc(N3CCCCC3)nc(N3CCCCC3)n2)nc1,inconclusive: 1.4%

# Three entries already listed, ordered by heavy-atom count, largest number first:
row,Structure (SMILES),inhibition
21,O=C1/C(=C/c2cccnc2)Oc2cc(OS(=O)(=O)c3ccc(Cl)cc3)ccc21,inactive: 3.5%
2,Cc1ccc(NS(=O)(=O)c2ccc3c(c2)NC(=O)CCS3)cc1C,inactive: 1.1%
10,CSc1nc(C)cc(OCC(=O)n2nc(C)cc2C)n1,inconclusive: 0.7%

# Later entries:

row,Structure (SMILES),inhibition
1,Cc1ncc(CN2CCC(C(=O)Nc3cccc(-c4cscn4)c3)CC2)cn1,inactive: 1.5%
2,CCOc1ccccc1N=Nc1c(C)[nH]n(C(N)=S)c1=O,inactive: 2.6%
3,Cc1cc(OCc2ccc(F)cc2)nc(-c2ccccc2O)n1,inconclusive: 0.4%
4,CCN1CCC(NCC2CCCCC2)CC1,inconclusive: 0.9%
5,CN1c2ccccc2C(=O)C(=C2SCCCS2)S1(=O)=O,inconclusive: 4.8%
6,CCOC(=O)C1=C(Cc2ccc(OC)cc2)C(=O)c2ccccc2C1=O,inconclusive: 19%
7,Cc1ccc(S(=O)(=O)NCc2ccc3c(c2)cc(C)n3C)cc1,active: 80.6%
8,CNC(=O)NNC(=O)c1onc(-c2c(Cl)cccc2Cl)c1C(=O)OC,inconclusive: -30.6%
9,COc1ccccc1CNC(=O)CCN1C(=O)COc2ccc(C)cc21,inconclusive: 2.1%
10,CC(=O)Nc1ccc(NC(=O)COC(=O)c2ccc(S(=O)(=O)N(C)c3ccccc3)cc2)cc1,inactive: 0.2%
11,CN1CCN(S(=O)(=O)c2ccc(-c3ccc(Cl)cc3)cc2)CC1,inactive: -0.9%
12,C=Cc1c(C)c2cc3[nH]c(cc4nc(cc5nc(cc1[nH]2)C(C)=C5CCC(=O)O)C(CCC(=O)O)=C4C)c(C)c3C=C,active: 42.9%
13,COc1cccc(/C=N/Nc2ncnc(N)c2[N+](=O)[O-])c1OC,inactive: 4.7%
14,COc1ccccc1NC(=O)CSc1ncn(-c2ccccc2)n1,inconclusive: 3.7%
15,NC(Cc1ccc(C(F)(F)F)cc1)c1csc(NC(=O)Nc2ccccc2)n1 (stereo unspecified),inactive: -0.7%
16,CN(C(=O)COC(=O)C1CCN(S(=O)(=O)c2cccs2)CC1)C1CCS(=O)(=O)C1 (stereo unspecified),inconclusive: 3%
17,CCOc1c(Cl)cc(CNC(C)(C)CC(C)(C)C)cc1OC,inactive: 3.7%
18,COc1ccc(N2CCN(c3oc(-c4ccco4)nc3C#N)CC2)cc1,inconclusive: 5.5%
19,O=C(NNc1cccc(Cl)n1)c1c(Cl)cccc1Cl,inconclusive: 1.6%
20,Cc1cc(C=C(C#N)C#N)ccc1N1CCCC1,active: 50.2%
21,COc1cccc(CN(C)C(=O)C2CCCN(C(=O)c3ccc(Cl)cc3)C2)c1 (stereo unspecified),inactive: -0.2%
22,Cc1cc(=O)oc2cc(OCC(=O)N(C)C3CCS(=O)(=O)C3)c(Cl)cc12 (stereo unspecified),inactive: 2%
23,O=[N+]([O-])/C=C/c1cn(Cc2ccc(Cl)cc2)c2ccccc12,active: 39.1%

row,Structure (SMILES),inhibition
1,O=c1cc(-c2ccccc2)oc2c1CCCC2,inactive: -0.8%
2,CCOc1c(Nc2ccc(C(C)C)cc2)c(=O)c1=O,inconclusive: -8.1%
3,O=C(NCc1ccc(Cl)c(Cl)c1)c1cc(C2CCCCN2C(=O)OCCF)on1 (stereo unspecified),inactive: 0.2%
4,Cc1cc(=O)oc2c(C)c(OC(C)C(=O)NCCCN3CCOCC3)ccc12 (stereo unspecified),inactive: 0.3%
5,CCOC(=O)c1sc2cc([N+](=O)[O-])cc(SCC(C)C)c2c1N,active: 31.5%
6,COc1ccccc1Oc1cc(F)nc(N)n1,inconclusive: 15.7%
7,Cc1ccc(C(C(=O)NC2CCCCC2)N(C(=O)Cc2c[nH]c3ccccc23)c2ccccc2)o1 (stereo unspecified),inconclusive: 3.1%
8,O=C(CSc1ccc2nnc(-c3ccc(F)cc3)n2n1)NCC1CCCO1 (stereo unspecified),inconclusive: 0.1%
9,O=P(Nc1ccccc1)(Nc1ccccc1)Oc1cccc(Cl)c1,inconclusive: 21.3%
10,O=C(N/N=C(\CC(=O)c1cccs1)C(F)(F)F)c1cccnc1,inconclusive: 3.7%
11,c1ccc(-c2cc3nc(NCc4cccs4)nc(NCc4ccc5occc5c4)c3s2)cc1,inactive: 1.6%
12,Cc1c(C(=O)NCc2cccs2)oc2ccc(Br)cc12,inconclusive: 23.5%
13,CC1(C)NC(=O)N(CC(O)COC2CCCCC2)C1=O (stereo unspecified),inactive: -0.4%
14,Cc1ccc(S(=O)(=O)/C(C#N)=C/c2c(N3CCOCC3)nc3ccccn3c2=O)cc1,inconclusive: 1.7%
15,CCSc1nnc2n(-c3ccc(OC)cc3)c(=O)c3c4c(sc3n12)CCCC4,inconclusive: -0.1%
16,C[C@H](NC(=O)C1CCN(S(=O)(=O)c2ccccc2)CC1)C(=O)NCc1ccncc1,inactive: -0.7%
17,COc1ccccc1CNC(=O)CN1C(=O)NC2(CCCCCCC2)C1=O,inactive: -0.3%
18,O=C(NNC(=O)c1ccc(Oc2cc(Cl)cc(Cl)c2)o1)c1ccccc1,inconclusive: -6.6%
19,Cc1sc2nc(-c3ccccn3)[nH]c(=O)c2c1-c1ccccc1,inactive: -2.5%
20,CCOC(=O)CN1C(=O)N[C@@H](CCc2ccccc2)[C@H](C(C)=O)[C@H]1C,inactive: -0.1%
21,CCOc1ccc(-c2nc(S(=O)(=O)c3ccccc3)c(NC)o2)cc1,inactive: -1.4%
22,Clc1ccc(Nc2ccccc2)nn1,inconclusive: 17.9%
